Test results from patent US20250222065A1, “CYCLIC POLYPEPTIDE FOR THE TREATMENT OF PHA TYPE 1B” (priority 2015, published 2025).
For at least one compound, name, drawing or mass did not settle the structure.

Amino acid sequences for entries named in this document (tags omitted). A change or cut given only in a name is not applied to a line headed by its entry.
UniProt P51172: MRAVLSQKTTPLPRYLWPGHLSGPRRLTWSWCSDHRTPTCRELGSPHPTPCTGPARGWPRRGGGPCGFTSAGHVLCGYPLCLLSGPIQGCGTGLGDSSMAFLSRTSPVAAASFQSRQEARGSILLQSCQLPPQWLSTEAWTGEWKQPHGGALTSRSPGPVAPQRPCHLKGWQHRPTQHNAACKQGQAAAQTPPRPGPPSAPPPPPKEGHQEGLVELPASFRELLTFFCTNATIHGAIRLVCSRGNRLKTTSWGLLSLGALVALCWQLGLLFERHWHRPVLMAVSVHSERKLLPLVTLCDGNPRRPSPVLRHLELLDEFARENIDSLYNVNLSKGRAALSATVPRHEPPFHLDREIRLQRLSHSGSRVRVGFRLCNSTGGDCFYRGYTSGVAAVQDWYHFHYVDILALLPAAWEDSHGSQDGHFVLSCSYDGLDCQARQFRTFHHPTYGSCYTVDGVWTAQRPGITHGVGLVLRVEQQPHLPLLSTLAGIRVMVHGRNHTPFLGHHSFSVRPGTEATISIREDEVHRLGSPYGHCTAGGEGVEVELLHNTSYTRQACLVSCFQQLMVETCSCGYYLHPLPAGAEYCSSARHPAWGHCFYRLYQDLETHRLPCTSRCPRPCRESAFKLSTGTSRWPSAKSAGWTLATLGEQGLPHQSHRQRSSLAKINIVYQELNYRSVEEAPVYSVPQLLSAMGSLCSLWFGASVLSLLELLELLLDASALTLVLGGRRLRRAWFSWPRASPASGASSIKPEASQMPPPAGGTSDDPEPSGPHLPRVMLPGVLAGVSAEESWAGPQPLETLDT

Biological target: T1, δQ102Kβγ hENaC (Homo sapiens, UniProt P51168+P51170+P51172, Q266K)
T1 construct: expressed in transfected cells; host or cells: HEK-293
T1 sequence (P51172 1-638 isoform P51172-1 Q102K): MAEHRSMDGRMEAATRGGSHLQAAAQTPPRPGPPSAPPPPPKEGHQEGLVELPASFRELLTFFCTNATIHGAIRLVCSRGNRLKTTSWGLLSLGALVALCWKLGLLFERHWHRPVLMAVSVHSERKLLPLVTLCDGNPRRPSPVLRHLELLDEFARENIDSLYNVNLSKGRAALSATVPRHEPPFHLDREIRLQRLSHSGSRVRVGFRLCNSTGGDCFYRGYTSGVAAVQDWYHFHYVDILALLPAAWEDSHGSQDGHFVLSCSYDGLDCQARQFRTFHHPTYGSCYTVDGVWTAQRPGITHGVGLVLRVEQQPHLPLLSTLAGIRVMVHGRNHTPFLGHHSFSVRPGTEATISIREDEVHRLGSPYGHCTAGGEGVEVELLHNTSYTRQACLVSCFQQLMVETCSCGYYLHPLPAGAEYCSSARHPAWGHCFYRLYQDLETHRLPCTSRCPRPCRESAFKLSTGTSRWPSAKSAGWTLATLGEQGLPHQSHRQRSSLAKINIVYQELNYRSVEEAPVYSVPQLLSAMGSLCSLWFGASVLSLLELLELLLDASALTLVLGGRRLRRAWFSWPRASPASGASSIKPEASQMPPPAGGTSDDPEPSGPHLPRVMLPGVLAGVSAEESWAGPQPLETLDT
T1 sequence (P51168 1-640): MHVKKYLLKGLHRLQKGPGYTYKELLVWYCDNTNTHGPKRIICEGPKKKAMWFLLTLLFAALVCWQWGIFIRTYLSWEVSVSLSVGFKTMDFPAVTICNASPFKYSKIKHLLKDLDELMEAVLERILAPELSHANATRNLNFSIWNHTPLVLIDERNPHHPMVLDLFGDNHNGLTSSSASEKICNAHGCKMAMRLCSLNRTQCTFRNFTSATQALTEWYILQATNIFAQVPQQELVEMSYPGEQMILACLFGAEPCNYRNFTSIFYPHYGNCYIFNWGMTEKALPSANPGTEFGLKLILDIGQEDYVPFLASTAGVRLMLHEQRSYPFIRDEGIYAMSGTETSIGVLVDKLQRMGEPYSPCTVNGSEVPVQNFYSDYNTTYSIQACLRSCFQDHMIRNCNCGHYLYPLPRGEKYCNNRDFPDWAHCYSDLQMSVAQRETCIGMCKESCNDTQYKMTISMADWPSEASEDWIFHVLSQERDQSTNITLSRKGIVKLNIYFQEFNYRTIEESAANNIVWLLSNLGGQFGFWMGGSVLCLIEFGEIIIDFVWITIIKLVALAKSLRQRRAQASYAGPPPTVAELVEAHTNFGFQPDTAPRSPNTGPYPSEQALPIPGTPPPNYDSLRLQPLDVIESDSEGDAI
T1 sequence (P51170 1-649): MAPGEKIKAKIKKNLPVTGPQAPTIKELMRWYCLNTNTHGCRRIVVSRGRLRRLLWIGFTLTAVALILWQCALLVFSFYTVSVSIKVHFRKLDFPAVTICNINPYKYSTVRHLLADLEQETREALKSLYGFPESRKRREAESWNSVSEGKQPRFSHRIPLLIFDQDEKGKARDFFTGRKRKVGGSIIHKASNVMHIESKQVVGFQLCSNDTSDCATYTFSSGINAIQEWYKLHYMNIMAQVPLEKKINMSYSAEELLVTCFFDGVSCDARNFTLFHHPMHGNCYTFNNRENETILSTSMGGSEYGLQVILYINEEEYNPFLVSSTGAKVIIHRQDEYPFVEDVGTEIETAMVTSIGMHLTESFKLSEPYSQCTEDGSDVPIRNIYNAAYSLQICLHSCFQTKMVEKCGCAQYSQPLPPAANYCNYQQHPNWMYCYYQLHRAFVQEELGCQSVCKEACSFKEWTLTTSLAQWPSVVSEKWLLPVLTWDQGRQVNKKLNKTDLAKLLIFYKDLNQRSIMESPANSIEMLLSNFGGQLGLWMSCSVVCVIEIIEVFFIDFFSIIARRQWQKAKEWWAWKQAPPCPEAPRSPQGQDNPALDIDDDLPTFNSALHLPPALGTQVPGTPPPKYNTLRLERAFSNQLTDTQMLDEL
Test: Whole cell patch clamp, HEK-293 cells expressing mutant δQ102Kβγ-hENaC
Format: cell-based
Settings: HEK-293, whole cell patch clamp; no-peptide current: loss-of-function

## C[C@@H]1NC(=O)CNC(=O)[C@H](CCC(=O)O)NC(=O)[C@@H]2CCCN2C(=O)[C@H]([C@@H](C)O)NC(=O)[C@H](CCC(=O)O)NC(=O)[C@H](CCCNC(=N)N)NC(=O)[C@H](CCC(N)=O)NC(=O)CNC(=O)[C@@H](N)CSSC[C@@H](C(=O)O)NC(=O)[C@H](Cc2ccc(O)cc2)NC(=O)[C@H](Cc2c[nH]c3ccccc23)NC(=O)[C@@H]2CCCN2C(=O)[C@H](CCCCN)NC(=O)[C@H](C)NC(=O)[C@H](CCC(=O)O)NC1=O [AP301]
  AP301 restored Na+ current: 121.9 ± 14.6 pA
